Source: PubChem BioAssay AID504749 (NCATS, 2011).

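A panel of P. falciparum strains inside erythrocytes is exposed to compounds for three days, then a DNA-binding dye reports the amount of parasite DNA. Each compound was titrated across a series from about 0.000037 to 29 µM. The number is the fitted AC50, the concentration giving a half-maximal change in signal; a lower value means higher potency, whether the curve shows a decrease or an increase. Calls follow the curve class and fit quality: every row here is inconclusive, covering signal-raising curves and weak, poorly fitted, partial or highest-dose-only inhibition curves.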

Values are in µM. All entries here are filed as inconclusive. Only part of the assay is shown, chiefly results filed as inconclusive. A potency from a partial, single-point or poor curve is only a rough figure.

Compound: CC(C)(C)NCC(O)c1cc(Cl)c(N)c(Cl)c1 (stereo not given)
tested on / at: CP305
Potency (µM): 16.94
curve: inhibitor, partial curve, poor fit

Compound: CC(C)(C)NCC(O)c1cc(Cl)c(N)c(Cl)c1 (stereo not given)
tested on / at: CP203
Potency (µM): 16.94
curve: inhibitor, single point

Compound: CC(C)(C)NCC(O)c1cc(Cl)c(N)c(Cl)c1 (stereo not given)
tested on / at: PC15
Potency (µM): 8.912
curve: inhibitor, partial curve, poor fit

Compound: CC(C)(C)NCC(O)c1cc(Cl)c(N)c(Cl)c1 (stereo not given)
tested on / at: CP265
Potency (µM): 10
curve: inhibitor, single point

Compound: CC(C)(C)NCC(O)c1cc(Cl)c(N)c(Cl)c1 (stereo not given)
tested on / at: PC49
Potency (µM): 11.22
curve: inhibitor, partial curve

Compound: CC(C)(C)NCC(O)c1cc(Cl)c(N)c(Cl)c1 (stereo not given)
tested on / at: P93_24
Potency (µM): 1.259
curve: inhibitor, partial curve

Compound: CC(C)(C)NCC(O)c1cc(Cl)c(N)c(Cl)c1 (stereo not given)
tested on / at: CP262
Potency (µM): 16.94
curve: inhibitor, single point

Compound: CC(C)(C)NCC(O)c1cc(Cl)c(N)c(Cl)c1 (stereo not given)
tested on / at: CP297
Potency (µM): 13.46
curve: inhibitor, partial curve, poor fit

Compound: CC(C)(C)NCC(O)c1cc(Cl)c(N)c(Cl)c1 (stereo not given)
tested on / at: TAB165
Potency (µM): 11.22
curve: inhibitor, single point

Compound: CC(C)(C)NCC(O)c1cc(Cl)c(N)c(Cl)c1 (stereo not given)
tested on / at: TAB109
Potency (µM): 10
curve: inhibitor, partial curve

Compound: CC(C)(C)NCC(O)c1cc(Cl)c(N)c(Cl)c1 (stereo not given)
tested on / at: SC27B
Potency (µM): 12.59
curve: inhibitor, single point

Compound: CC(C)(C)NCC(O)c1cc(Cl)c(N)c(Cl)c1 (stereo not given)
tested on / at: CP238
Potency (µM): 8.912
curve: inhibitor, single point

Compound: CC(C)(C)NCC(O)c1cc(Cl)c(N)c(Cl)c1 (stereo not given)
tested on / at: CP260
Potency (µM): 17.78
curve: inhibitor, single point

Compound: CC(C)(C)NCC(O)c1cc(Cl)c(N)c(Cl)c1 (stereo not given)
tested on / at: CP335
Potency (µM): 10.69
curve: inhibitor, partial curve, poor fit

Compound: CC(C)(C)NCC(O)c1cc(Cl)c(N)c(Cl)c1 (stereo not given)
tested on / at: JCK
Potency (µM): 8.912
curve: inhibitor, partial curve

Compound: CC(C)(C)NCC(O)c1cc(Cl)c(N)c(Cl)c1 (stereo not given)
tested on / at: CP252
Potency (µM): 8.912
curve: inhibitor, single point

Compound: CC(C)(C)NCC(O)c1cc(Cl)c(N)c(Cl)c1 (stereo not given)
tested on / at: CP269
Potency (µM): 19.01
curve: inhibitor, single point

Compound: CC(C)(C)NCC(O)c1cc(Cl)c(N)c(Cl)c1 (stereo not given)
tested on / at: ATS95
Potency (µM): 11.22
curve: inhibitor, partial curve

Compound: CC(C)(C)NCC(O)c1cc(Cl)c(N)c(Cl)c1 (stereo not given)
tested on / at: ECU
Potency (µM): 10
curve: inhibitor, single point

Compound: CC(C)(C)NCC(O)c1cc(Cl)c(N)c(Cl)c1 (stereo not given)
tested on / at: CP291
Potency (µM): 19.01
curve: inhibitor, single point